What was measured:
[1] = system: bloodstream forms of Trypanosoma brucei (clone 427-221a); assay: In vitro toxicity assay (resazurin), T. brucei bloodstream forms; type: cell-based; conditions: selectivity index GI50,HL-60/GI50,parasite
Description: (§1) Bloodstream forms of Trypanosoma brucei (clone 427-221a) and human myeloid leukaemia HL-60 cells were maintained in Baltz medium supplemented with 16.7% heat-inactivated bovine serum in a humidified atmosphere containing 5% CO2 at 37 °C. Promastigotes of Leishmania major (strain MHOM/IL/81/Friedlin [16]) were cultured in Schneider’s insect medium supplemented with 10% heat-inactivated foetal bovine serum in a humidified atmosphere containing 5% CO2 at 27 °C.
(§2) Toxicity assays were carried out as previously described with some modifications. In brief, cells were seeded in 96-well plates in a final volume of 200 μL of appropriate medium containing various concentrations of test compounds (tenfold dilution from 100 µM to 1 nM) and 1% DMSO. Wells just containing medium and 1% DMSO served as controls. The initial cell densities were 1 × 10^4/mL for T. brucei bloodstream forms, 2.5 × 10^5/mL for L. major promastigotes, and 5 × 10^4/mL for HL-60 cells. After 24 h incubation, 20 µL of a 0.5 mM resazurin solution prepared in PBS was added and the cells were incubated for a further 48 h. Thereafter, the absorbance of wells was read on a BioTek ELx808 microplate reader using a test wavelength of 570 nm and a reference wavelength of 630 nm. The 50% growth inhibition (GI50) value, i.e., the concentration of a compound necessary to reduce the growth rate of cells by 50% compared to the control, was determined by linear interpolation. The minimum inhibitory concentration (MIC) values, i.e. the concentration of a compound at which all trypanosomes and human cells were killed, was determined microscopically.

[2] = system: promastigotes of Leishmania major (strain MHOM/IL/81/Friedlin); assay: In vitro toxicity assay (resazurin), L. major promastigotes; type: cell-based; conditions: for L. major GI50 ratio: selectivity index GI50,HL-60/GI50,parasite; for L. major MIC ratio: selectivity index MIC HL-60/MIC parasite
Description: as §1, §2

Row | Compound | T. brucei GI50 ratio [1] | L. major GI50 ratio [2] | L. major MIC ratio [2]
1 | CC1(C)C(=O)C=C[C@]2(C)C3CC[C@@]4(C)[C@H](c5ccoc5)OC(=O)[C@H]5O[C@]54[C@]3(C)[C@H](O)C[C@@H]12 (stereo partly drawn) [Compound 3, 7-deacetylgedunin] | 3.2 | 4.0 | 1
2 | CC1(C)C(=O)C=C[C@]2(C)C3CC[C@@]4(C)[C@H](c5ccoc5)OC(=O)[C@H]5O[C@]54[C@]3(C)C(=O)C[C@@H]12 (stereo partly drawn) [Compound 4, 7-deacetyl-7-oxogedunin] | > 31.4 | > 13.1 | 1
3 | C=C1[C@@H]2CC[C@@]3(C)[C@H](c4ccoc4)OC(=O)C[C@]13O[C@H]1CC(=O)C(C)(C)[C@H](CC(=O)OC)[C@]12C [Compound 6, methyl angolensate] | > 16.6 | 1 | 1

Source: paper PMC7253382, “Trypanocidal and leishmanicidal activity of six limonoids” (Journal of Natural Medicines, 2020)
